# These are yes or no findings as the source states them, for the method shown. Binding seen in cells or lysates may run through a third protein. Here binding means that the protein was enriched with, or labelled near, the bait; the list need not be complete. Where a sequence is shown, tags or fusion partners need not be part of it.
# T1: dox-inducible 3xFLAG-BirA*-tagged TCF7L1 in the Rosa26 locus (UniProt Q9Z1J1)
# T1 sequence: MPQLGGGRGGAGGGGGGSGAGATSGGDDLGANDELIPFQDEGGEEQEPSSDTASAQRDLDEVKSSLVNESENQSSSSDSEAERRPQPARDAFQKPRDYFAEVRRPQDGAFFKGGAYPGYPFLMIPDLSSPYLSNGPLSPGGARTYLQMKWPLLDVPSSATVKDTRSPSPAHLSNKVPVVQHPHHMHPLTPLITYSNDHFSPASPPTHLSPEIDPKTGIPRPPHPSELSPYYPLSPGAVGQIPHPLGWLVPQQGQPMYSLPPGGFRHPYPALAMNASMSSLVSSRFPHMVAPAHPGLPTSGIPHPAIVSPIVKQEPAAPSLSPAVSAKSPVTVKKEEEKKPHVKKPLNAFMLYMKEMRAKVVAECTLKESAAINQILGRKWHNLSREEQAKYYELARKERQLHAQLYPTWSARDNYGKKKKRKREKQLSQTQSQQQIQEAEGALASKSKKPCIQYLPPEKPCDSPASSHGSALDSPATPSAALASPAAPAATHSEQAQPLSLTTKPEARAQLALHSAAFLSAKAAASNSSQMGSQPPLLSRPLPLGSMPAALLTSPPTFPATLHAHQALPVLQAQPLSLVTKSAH
# T2: 3xFLAG-BirA*-tagged TCF7L1 at the endogenous TCF7L1 locus (mouse (endogenous in mESCs)) (UniProt Q9Z1J1)
# T2 sequence: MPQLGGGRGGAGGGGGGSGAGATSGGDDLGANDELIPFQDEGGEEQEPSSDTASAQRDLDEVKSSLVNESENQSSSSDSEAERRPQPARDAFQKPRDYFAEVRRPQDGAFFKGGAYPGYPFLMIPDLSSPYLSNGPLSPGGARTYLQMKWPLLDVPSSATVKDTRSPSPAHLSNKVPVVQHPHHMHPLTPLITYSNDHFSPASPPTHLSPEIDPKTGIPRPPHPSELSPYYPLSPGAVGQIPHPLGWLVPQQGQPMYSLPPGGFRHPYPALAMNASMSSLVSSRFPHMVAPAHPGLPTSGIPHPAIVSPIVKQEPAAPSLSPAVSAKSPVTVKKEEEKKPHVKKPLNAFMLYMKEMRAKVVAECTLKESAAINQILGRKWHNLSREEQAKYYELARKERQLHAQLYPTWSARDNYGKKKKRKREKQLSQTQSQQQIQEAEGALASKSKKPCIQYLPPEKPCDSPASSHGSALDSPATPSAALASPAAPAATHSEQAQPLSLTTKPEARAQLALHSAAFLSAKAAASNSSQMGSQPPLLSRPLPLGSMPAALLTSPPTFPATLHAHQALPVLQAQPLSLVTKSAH
# Tests used:
# [1] = target: T1, dox-inducible 3xFLAG-BirA*-tagged TCF7L1 in the Rosa26 locus; test: proximity labelling
# [2] = target: T2, 3xFLAG-BirA*-tagged TCF7L1 at the endogenous TCF7L1 locus (mouse (endogenous in mESCs)); test: proximity labelling
binder,measurement,setting,value
"PHF14 (protein, UniProt Q9D4H9 1-941) MDRSSKRRQVKPLAASLLEALDYDSSDDSDFKVGDASDSEGSGNGSEDPSKDSGEGSCSDSEENILEEELNEDIQVKEEQLKNSTEEIMPSDKQLIKMEKKEEEENGERPRKKKEKEKEKEKEREKDKEKATVSDSAAASAAGTTPATSPPAVTSPSVPTTTTTTTEEQVSEPKKWNLRRNRPLLDFVSMEELNAMDDYDSEDDNDWRPTVVKRKGRSASQKEGSDGDNEDDDDEGSGSEEDENDEGNDEDHSSPASEAGGKKKRSKVLSRNSADDEELTNDSLTLSQSKSNEDSLILEKSQNWSSQKMDHILICCVCLGDNSEDADEIIQCDNCGITVHEGCYGVDGESDSIMSSASENSTEPWFCDACKCGVSPSCELCPNQDGIFKETDAGRWVHIVCALYVPGVAFGDIDKLRPVTLTEMNYSKYGAKECSFCEDPRFARTGVCISCDAGMCRAYFHVTCAQKEGLLSEAAAEEDIADPFFAYCKQHADRLDRKWKRKNYLALQSYCKMSLQEREKQLSPEAQARINARLQQYRAKAELARSTRPQAWVPREKLPRPLTSSASAIRKLMRKAELMGISTDIFPVDNSDTSSSVDGRRKHKQPALTADFVNYYFERNMRMIQIQENMAEQKNIKDKLENEQEKLHVEYNKLCESLEELQNLNGKLRSEGQGIWALLGRITGQKLNVPAILRAPKERKPSKKEGGTQKTSALPTVLYSCGICKKNHDQHLLLLCDTCKLHYHLGCLDPPLTRMPRKTKNSYWQCSECDQAGSSDMEAEMAMETLPDGTKRSRRQIKEPVKFVPQDVPPEPKKIPIRNTRTRGRKRSFVPEEEKHEERVPRERRQRQSVLQKKPKAEDLRTECSTCKGTGDNENLVRCDECRLCYHFGCLDPPLKKSPKQTGYGWICQECDSSSSKEDENEAEKKNASQELSMEQKTPKK",binding,[1],binds
same,binding,[2],binds
